According to PubChem BioAssay (NCATS):
Inconclusive results, whose numbers are uncertain, are shown with a selection of clear calls. Where the call is inconclusive, the potency comes from a doubtful curve fit. The source made the active and inactive calls. Calls come from the whole dose curve; as a rule, active = well fitted cell-killing curve with a large enough effect; inconclusive = small, poorly fitted or top-dose-only effect, or effect the other way; inactive = no such curve, though single readings can be large or run the other way.

Assay: qHTS of pediatric cancer cell lines to identify multiple opportunities for drug repurposing: Confirmatory screen for OHS-50 cells (AID 1347128);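 note: compound exposure lasted 48 h at 37 degrees C; nearly all actives have a fitted effect of over 55% in size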
Details: OHS-50 osteosarcoma cells viability; series mostly up to 45.9 µM; activity change, negative = cytotoxic: at the top concentration
Excerpt: Drug repurposing or repositioning has been offered as a strategy for drug development in oncology programs. This approach has special potential for childhood cancers and other rare or orphan diseases, where the expected return on new drug development has been a disincentive to pharmaceuticals.
In this project we exploit the poly-pharmacology of drugs to discover new indications via phenotypic screening of a panel of 19 well-characterized cell lines derived from solid tumors seen in children and adolescents. The goal is to identify approved drugs with previously unrecognized anticancer properties that has the potential to reveal new mechanisms and biological processes involved in carcinogenesis or drug resistance. We employed a titration-based paradigm (quantitative high-throughput screening or qHTS), where all compounds were tested at multiple concentrations for their effect on cell viability. Concentration-response curves (CRCs) were derived directly from the primary screen, and both potency and efficacy values were used to identify compounds with robust bioactivity profiles. We screened the NIH Chemical Genomics Center (NCGC) Pharmaceutical Collection (NPC) and Mechanism Interrogation Plate (MIPE) small molecule collections of approved and investigational compounds against these cell lines; and measured metabolically active cells after 48 hours of compound treatment as a proxy for cell viability.
Assay Submitter: Nathalia J. Martinez, National Center for Advancing Translational Sciences, National Institutes of Health, Rockville, MD, USA; email: natalia.martinez@nih.gov
[1] Shen, M et al. Quantitative high-throughput phenotypic screening of pediatric cancer cell lines identifies multiple opportunities for drug repurposing. Oncotarget 2017 Dec 19;9(4):4758-4772. PMID 29435139.
The cells were obtained from University of North Carolina (UNC), Pediatric Preclinical Testing Program (PPT), and Coriell Institute (CI).
qHTS cell viability assay:
Cells were assayed in growth media at a density of 500-1,000 cells/well. Five microliters of cells were dispensed into 1,536-well, white, solid-bottom, TC-treated plates (Greiner Bio One) using a multidrop dispenser and incubated at 37 degrees C, 5% CO2, under a humidified atmosphere for 5 hours. Twenty-three nanoliters of compounds and controls (neutral control DMSO or positive control bortezomib at final concentration of 2.3 µM) were subsequently transferred by Kalypsys pintool. For primary screens, the MIPE collection was tested at 11-point dilutions (final concentrations range from 0.78 nM to 46 µM) and the NPC collection at 8-point dilutions (final concentrations range from 0.59 nM to 46 µM). Compounds tested in follow-up screens were assayed at 11-point dilutions. Cells were incubated for 48 hours, followed by addition of 3 µL of CellTiter-Glo (Promega). After a 15 min incubation at room temperature, samples were analyzed for luminescence intensity using a ViewLux High-throughput CCD imager equipped with clear filters.
% is set by controls: 0 for no effect and ±100 for the full control effect; potency is the fitted concentration of half-maximal effect.

SMILES | Potency | activity change, negative = cytotoxic
CNC(=O)Nc1ccc(-c2nc(N3CC4CCC(C3)O4)c3cnn(C4CCC5(CC4)OCCO5)c3n2)cc1 | active: 3.29 µM | 
CCS(=O)(=O)c1cccc(-c2cc(C(=O)NC3CCN(C)CC3)c(C)c3[nH]c4ncc(C)cc4c23)c1 | active: 1.85 µM | 
CN1C[C@H](C(=O)N[C@]2(C)O[C@@]3(O)[C@@H]4CCCN4C(=O)[C@H](Cc4ccccc4)N3C2=O)C[C@@H]2c3cccc4[nH]cc(c34)C[C@H]21 |  | inactive: -11%
O=c1[nH]sc2cc(Cl)ccc12 | inconclusive: 16.5 µM [cytotoxic, partial curve] | 
CC(=O)OCC(=O)[C@@]1(O)CC[C@H]2[C@@H]3CCC4=CC(=O)C=C[C@]4(C)[C@@]3(F)[C@@H](O)C[C@@]21C | active: 16.5 µM | 
CC(C)=CCC/C(C)=C/CC/C(C)=C/C(=O)OCC(=O)[C@@]1(O)CC[C@H]2[C@@H]3CCC4=CC(=O)C=C[C@]4(C)[C@H]3[C@@H](O)C[C@@]21C | inconclusive: 18.5 µM [cytotoxic, partial curve] | 
NC(CO)(CO)CO |  | inactive: 7.18%
Cc1ccc(NC(=O)C2(c3ccc4c(c3)OC(F)(F)O4)CC2)nc1-c1cccc(C(=O)O)c1 | inconclusive: 0.0033 µM [cytotoxic, full curve, poor fit] | 
CC(C)(C)CC(=O)OCC(=O)[C@@]1(O)CC[C@H]2[C@@H]3CCC4=CC(=O)C=C[C@]4(C)[C@H]3[C@@H](O)C[C@@]21C |  | inactive: -15.1%
COC(=O)C1C2CC3c4[nH]c5cc(OC)ccc5c4CCN3CC2CC(OC(=O)c2cc(OC)c(OC)c(OC)c2)C1OC (stereo unspecified) | inconclusive: 2.61 µM [cytotoxic, full curve] | 
CC(C)(C)NC(=O)[C@H]1CN(Cc2cccnc2)CCN1C[C@@H](O)C[C@@H](Cc1ccccc1)C(=O)N[C@H]1c2ccccc2C[C@H]1O | inconclusive: 16.5 µM [cytotoxic, partial curve, poor fit] | 
COc1ccc(C[C@@H](C)[C@@H](C)Cc2ccc(OC)c(OC)c2)cc1OC | inconclusive: 18.5 µM [cytotoxic, partial curve] | 
CN(C)CCN(Cc1ccsc1)c1ccccn1 | inconclusive: 16.5 µM [cytotoxic, partial curve, poor fit] | 
CS(=O)(=O)N1CCc2c(-c3cnc(N)nc3)nc(N3CCOCC3)nc21 | active: 2.93 µM | 
O=C(Nc1ncc(-c2cc(C(F)F)nn2-c2c(Cl)cccc2Cl)s1)C1CC1 | inconclusive: 0.827 µM [cytotoxic, full curve] | 
COc1cc(OC)c(C=CS(=O)(=O)Cc2ccc(OC)c(NCC(=O)O)c2)c(OC)c1 | inconclusive: 0.293 µM [cytotoxic, full curve] | 
CC(=O)O[C@@H]1C(=O)O[C@@H]2[C@H]1OC(=O)[C@@H]2OC(C)=O |  | inactive: 2.81%
O=C(Oc1cccc2cccnc12)c1ccccc1 | inconclusive: 36.9 µM [cytotoxic, single point] | 

SMILES | Potency | activity change, negative = cytotoxic
COc1cc(C(=O)NCCCCCC(=O)O)cc(OC)c1OC |  | inactive: 9.11%
COc1ccc(C(=O)c2ccccc2)c(O)c1 |  | inactive: 1.38%
CN(C)c1ccc(C(=O)NCCCCCCC(=O)NO)cc1 | inconclusive: 2.08 µM [cytotoxic, partial curve, poor fit] | 
N=C(N)c1ccc(OCCCOc2ccc(C(=N)N)cc2)cc1 |  | inactive: 6.72%
Cc1cc(Nc2ncnc3ccc(-c4ccc(CNCCS(C)(=O)=O)o4)cc23)ccc1Oc1ccn2ncnc2c1 | inconclusive: 20.8 µM [cytotoxic, single point] | 
CC[C@@]1([C@@H]2O[C@@H]([C@H]3O[C@@](O)(CO)[C@H](C)C[C@H]3C)C[C@H]2C)CC[C@H]([C@]2(C)CC[C@]3(C[C@H](O)[C@@H](C)[C@@H]([C@@H](C)[C@@H](OC)[C@H](C)C(=O)O)O3)O2)O1 | active: 0.456 µM | 
O=C(O)CN1C(=O)c2cccc3cccc(c23)C1=O | inconclusive: 36.9 µM [cytotoxic, single point] | 
O=C1c2c(O)cccc2[C@@H]([C@@H]2O[C@H](CO)[C@@H](O)[C@H](O)[C@H]2O)c2cc(CO)cc(O)c21 |  | inactive: 4.72%
NC(=O)Nc1sc(-c2ccc(F)cc2)cc1C(N)=O | inconclusive: 3.29 µM [cytotoxic, full curve] | 
CN(C)C(=O)Nc1ccc(Cl)c(Cl)c1 | inconclusive: 32.9 µM [cytotoxic, single point] | 
Nc1nc(Cl)nc2c1ncn2[C@@H]1O[C@H](CO)[C@@H](O)[C@@H]1F | inconclusive: 0.414 µM [cytotoxic, full curve] | 
Cc1cc(Nc2ncc3c(n2)N(C)C(=O)N(c2cc(NC(=O)c4cccc(C(F)(F)F)c4)ccc2C)C3)n(C)n1 | inconclusive: 0.329 µM [cytotoxic, full curve] | 
COC(=O)Nc1ccc(-c2nc(N3CCOCC3)c3cnn(C4CCN(Cc5cccnc5)CC4)c3n2)cc1 | inconclusive: 14.7 µM [cytotoxic, partial curve, poor fit] | 
Cc1c(Cn2c(C)nc3c(C(=O)O)cc(N4CCOCC4)cc32)cccc1C(F)(F)F | inconclusive: 20.8 µM [cytotoxic, partial curve, poor fit] | 
Cc1cc(N2CCOCC2)cc2[nH]c(-c3c(NC[C@@H](O)c4cccc(Cl)c4)cc[nH]c3=O)nc12 | active: 3.29 µM | 
CCn1cc(-c2ccnc3[nH]c(-c4cccc(CN(C)C)c4)cc23)c(-c2ccc(NC(=O)N(C)C)cc2)n1 | inconclusive: 5.85 µM [cytotoxic, full curve, poor fit] | 
CC[C@@]1(O)C(=O)OCc2c1cc1n(c2=O)Cc2c-1nc1ccccc1c2/C=N/OC(C)(C)C | active: 0.0369 µM | 
COc1cc2c(NC3CCN(C(C)C)CC3)nc(C3CCCCC3)nc2cc1OCCCN1CCCC1 | inconclusive: 26.1 µM [cytotoxic, single point] | 

Rewritten as tab-separated lines: 8 of the compounds above
SMILES	Potency	activity change, negative = cytotoxic
COc1cc(C(=O)NCCCCCC(=O)O)cc(OC)c1OC		inactive: 9.11%
CN(C)c1ccc(C(=O)NCCCCCCC(=O)NO)cc1	inconclusive: 2.08 µM [cytotoxic, partial curve, poor fit]	
N=C(N)c1ccc(OCCCOc2ccc(C(=N)N)cc2)cc1		inactive: 6.72%
CC[C@@]1([C@@H]2O[C@@H]([C@H]3O[C@@](O)(CO)[C@H](C)C[C@H]3C)C[C@H]2C)CC[C@H]([C@]2(C)CC[C@]3(C[C@H](O)[C@@H](C)[C@@H]([C@@H](C)[C@@H](OC)[C@H](C)C(=O)O)O3)O2)O1	active: 0.456 µM	
O=C(O)CN1C(=O)c2cccc3cccc(c23)C1=O	inconclusive: 36.9 µM [cytotoxic, single point]	
Cc1cc(Nc2ncc3c(n2)N(C)C(=O)N(c2cc(NC(=O)c4cccc(C(F)(F)F)c4)ccc2C)C3)n(C)n1	inconclusive: 0.329 µM [cytotoxic, full curve]	
Cc1c(Cn2c(C)nc3c(C(=O)O)cc(N4CCOCC4)cc32)cccc1C(F)(F)F	inconclusive: 20.8 µM [cytotoxic, partial curve, poor fit]	
COc1cc2c(NC3CCN(C(C)C)CC3)nc(C3CCCCC3)nc2cc1OCCCN1CCCC1	inconclusive: 26.1 µM [cytotoxic, single point]	
